Values from PubChem BioAssay AID1259254 (NCATS, 2017)

Screen: 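Gene knock-downs that lead to re-replication, shown by excess G2 DNA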 (primary screen)
Cells: human HCT116 colorectal cancer cells
Reagents: single siRNA against human genes
Duration: 3 days
Detection: 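Nuclei stained with Hoechst and imaged; cell-cycle phase assigned by DNA content; G2 share scaled per plate, non-targeting siRNA 0%, GMNN siRNA 100%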
Reading the numbers: G2 robust z-score and G2 cells, % of GMNN control: higher = more G2 cells, more excess DNA replication
Hit rule: 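Active siRNAs have a G2 robust z of 5 or more median absolute deviations over the median, which in these data means about 38% or higher of GMNN control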
This is one part, drawn at random, of about 59,000 deposited reagents. About 1,550 of all reagents (2.6%) count as active. 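G2 share is only a proxy for re-replication; each gene was hit by three separate siRNAs, and active genes were retested.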 The numbers tell different reagents against one gene apart. Further read-outs or replicates are left out here. Not given: the amount of reagent.

FKBP14 #1 gave G2 robust z-score 0.798; G2 cells, % of GMNN control 8.58; inactive. Depletion of FKBP14 #2 gave: G2 robust z-score -1.24; G2 cells, % of GMNN control -5.72; inactive. Against FKBP14 #3, the entry reads G2 robust z-score 2.51; G2 cells, % of GMNN control 20.6; inactive. RNASE6 #1 gave G2 robust z-score -0.727; G2 cells, % of GMNN control -2.15; inactive. For RNASE6 #2 the deposit lists G2 robust z-score -0.858; G2 cells, % of GMNN control -3.07; inactive. With knock-down of RNASE6 #3 the results were G2 robust z-score 0.32; G2 cells, % of GMNN control 5.22; inactive.

TNC #1 showed G2 robust z-score -0.81; G2 cells, % of GMNN control -2.73; inactive. After knock-down of TNC #2, the screen gave G2 robust z-score 2.24; G2 cells, % of GMNN control 18.7; inactive. Against TNC #3 the deposit lists G2 robust z-score -0.39; G2 cells, % of GMNN control 0.223; inactive. Depletion of PTK7 #1 resulted in: G2 robust z-score -0.836; G2 cells, % of GMNN control -2.92; inactive. Depletion of PTK7 #2 resulted in: G2 robust z-score -1.52; G2 cells, % of GMNN control -7.74; inactive. With knock-down of PTK7 #3, the screen gave G2 robust z-score -0.609; G2 cells, % of GMNN control -1.31; inactive.

Silencing of H3C3 #1 came out at: G2 robust z-score -0.00872; G2 cells, % of GMNN control 2.91; inactive. Depletion of H3C3 #2 resulted in: G2 robust z-score 0.171; G2 cells, % of GMNN control 4.17; inactive. With knock-down of H3C3 #3, the record shows G2 robust z-score -0.351; G2 cells, % of GMNN control 0.498; inactive.

Just “G2 robust z-score” (3 entries from above):
RNASE6 #3: 0.32
TNC #1: -0.81
TNC #2: 2.24

Next records follow.
For EIF4E1B #1, the entry reads G2 robust z-score 1.07; G2 cells, % of GMNN control 10.5; inactive. EIF4E1B #2 showed G2 robust z-score 0.632; G2 cells, % of GMNN control 7.41; inactive. Against EIF4E1B #3, the values are G2 robust z-score -0.6; G2 cells, % of GMNN control -1.25; inactive. Silencing of FGG #1 resulted in: G2 robust z-score 3.99; G2 cells, % of GMNN control 31.1; inactive. Knock-down of FGG #2 came out at: G2 robust z-score 0.755; G2 cells, % of GMNN control 8.28; inactive. Against FGG #3, the values are G2 robust z-score 2.01; G2 cells, % of GMNN control 17.1; inactive.

After knock-down of MIF #1, the record shows G2 robust z-score -0.0345; G2 cells, % of GMNN control 2.72; inactive. After knock-down of MIF #2, the record shows G2 robust z-score -0.131; G2 cells, % of GMNN control 2.05; inactive. With knock-down of MIF #3 the results were G2 robust z-score 0.21; G2 cells, % of GMNN control 4.45; inactive. For ANAPC15 #1 the deposit lists G2 robust z-score 1.24; G2 cells, % of GMNN control 11.7; inactive. Against ANAPC15 #2, the entry reads G2 robust z-score 2.5; G2 cells, % of GMNN control 20.5; inactive. ANAPC15 #3 showed G2 robust z-score -0.747; G2 cells, % of GMNN control -2.29; inactive.

DEFB128 #1 gave G2 robust z-score 1.26; G2 cells, % of GMNN control 11.8; inactive. DEFB128 #2 showed G2 robust z-score -0.734; G2 cells, % of GMNN control -2.2; inactive. Silencing of DEFB128 #3 gave: G2 robust z-score -0.34; G2 cells, % of GMNN control 0.573; inactive.
